We go through one molecule from patent publication US20250304621A1, “POLYPEPTIDE FOR SPECIFICALLY BLOCKING BINDING OF ACVR1C TO GREM1 AND USE THEREOF” (The Seventh Affiliated Hospital, Sun Yat-Sen University, priority 2024, published 2025).

Results are given in words; binding and its absence hold for the method and conditions named. In cells and extracts the contact can be indirect. These calls come from enrichment with a bait or labelling near it, and not all partners need be listed. Sequences can lack the tags named with a protein.

This assay addresses T1, ACVR1C (activin receptor type-1C) (human) (UniProt Q8NER5).
T1 sequence (looked up): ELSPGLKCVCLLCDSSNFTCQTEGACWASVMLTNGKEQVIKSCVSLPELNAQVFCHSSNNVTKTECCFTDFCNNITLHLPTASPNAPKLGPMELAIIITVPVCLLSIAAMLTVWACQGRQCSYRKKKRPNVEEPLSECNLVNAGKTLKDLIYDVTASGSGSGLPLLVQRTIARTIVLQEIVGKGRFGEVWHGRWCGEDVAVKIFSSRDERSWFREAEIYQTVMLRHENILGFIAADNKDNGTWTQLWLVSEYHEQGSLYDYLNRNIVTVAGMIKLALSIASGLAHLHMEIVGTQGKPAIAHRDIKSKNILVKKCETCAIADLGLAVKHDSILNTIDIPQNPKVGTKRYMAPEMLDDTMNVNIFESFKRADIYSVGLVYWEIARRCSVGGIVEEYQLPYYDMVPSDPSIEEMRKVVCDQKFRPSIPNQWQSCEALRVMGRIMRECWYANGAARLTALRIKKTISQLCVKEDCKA
Description: anti-HA pull-down from HCT116 cells, band identified by mass spectrometry.

B1: Ha-tagged GREM1 (ligand, not shown: small tags and cut ends)
chain: KKKGSQGAIPPPDKAQHNDSEQTQSPQQPGSRNRGRGQGRGTAMPGEEVLESSQEALHVTERKYLKRDWCKTQPLKQTIHEEGCNSRTIINRFCYGQCNSFYIPRHIRKEEGSFQSCSFCKPKKFTTMMVTLNCPELQPPTKKKRVTRVKQCRCISIDLD
As to B1, the binding entry was “binds”.
